Results published in the supplement of paper PMC10849652.
Some of the results follow.

Chains of the proteins cited; added tags and fusions are not shown. Lines headed by an entry give the natural chain unless they say otherwise; changes in a name come on top.
UniProt Q9HC77: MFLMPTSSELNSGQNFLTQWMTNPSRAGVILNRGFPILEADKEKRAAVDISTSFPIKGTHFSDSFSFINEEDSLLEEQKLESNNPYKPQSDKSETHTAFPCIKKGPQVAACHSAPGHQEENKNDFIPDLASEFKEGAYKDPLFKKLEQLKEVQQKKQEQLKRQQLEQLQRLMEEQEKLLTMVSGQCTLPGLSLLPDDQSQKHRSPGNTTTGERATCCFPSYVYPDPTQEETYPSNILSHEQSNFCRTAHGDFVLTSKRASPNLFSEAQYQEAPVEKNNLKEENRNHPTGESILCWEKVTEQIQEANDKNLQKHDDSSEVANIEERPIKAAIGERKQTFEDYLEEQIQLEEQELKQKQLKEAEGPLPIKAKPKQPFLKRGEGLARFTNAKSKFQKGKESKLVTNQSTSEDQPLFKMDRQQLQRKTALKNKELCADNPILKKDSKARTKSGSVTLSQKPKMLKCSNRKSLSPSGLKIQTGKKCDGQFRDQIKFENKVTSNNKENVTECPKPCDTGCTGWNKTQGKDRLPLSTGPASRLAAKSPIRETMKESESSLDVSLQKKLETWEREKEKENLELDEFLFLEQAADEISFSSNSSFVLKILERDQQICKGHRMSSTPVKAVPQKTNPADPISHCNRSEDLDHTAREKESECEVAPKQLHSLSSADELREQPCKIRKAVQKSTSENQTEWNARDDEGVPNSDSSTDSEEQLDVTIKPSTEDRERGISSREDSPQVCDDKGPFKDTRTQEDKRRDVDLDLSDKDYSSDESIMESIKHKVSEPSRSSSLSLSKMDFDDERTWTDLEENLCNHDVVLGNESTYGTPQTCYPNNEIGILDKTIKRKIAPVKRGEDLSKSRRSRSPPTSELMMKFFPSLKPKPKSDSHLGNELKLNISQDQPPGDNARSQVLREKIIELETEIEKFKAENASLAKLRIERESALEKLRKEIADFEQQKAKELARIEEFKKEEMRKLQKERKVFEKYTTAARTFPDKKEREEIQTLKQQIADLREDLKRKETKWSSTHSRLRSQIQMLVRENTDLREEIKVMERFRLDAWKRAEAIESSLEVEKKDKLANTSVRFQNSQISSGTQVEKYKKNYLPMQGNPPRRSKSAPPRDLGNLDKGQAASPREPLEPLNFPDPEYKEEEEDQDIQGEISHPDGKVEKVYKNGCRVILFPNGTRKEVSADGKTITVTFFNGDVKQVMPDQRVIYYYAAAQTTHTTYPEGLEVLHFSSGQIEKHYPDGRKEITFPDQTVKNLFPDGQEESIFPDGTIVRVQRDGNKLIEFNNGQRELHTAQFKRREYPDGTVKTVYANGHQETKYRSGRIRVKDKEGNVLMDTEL
UniProt Q9C0F1: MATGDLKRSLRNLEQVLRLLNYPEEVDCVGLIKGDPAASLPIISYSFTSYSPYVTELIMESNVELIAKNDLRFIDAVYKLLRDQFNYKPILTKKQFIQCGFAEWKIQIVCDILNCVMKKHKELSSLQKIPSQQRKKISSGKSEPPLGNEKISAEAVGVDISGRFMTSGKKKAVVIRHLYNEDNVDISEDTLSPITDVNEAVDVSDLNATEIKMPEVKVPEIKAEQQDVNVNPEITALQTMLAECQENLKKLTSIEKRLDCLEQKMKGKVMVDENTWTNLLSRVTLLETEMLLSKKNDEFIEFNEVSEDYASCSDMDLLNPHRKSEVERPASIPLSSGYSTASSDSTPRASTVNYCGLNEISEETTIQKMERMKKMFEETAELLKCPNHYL
UniProt Q9UQ88: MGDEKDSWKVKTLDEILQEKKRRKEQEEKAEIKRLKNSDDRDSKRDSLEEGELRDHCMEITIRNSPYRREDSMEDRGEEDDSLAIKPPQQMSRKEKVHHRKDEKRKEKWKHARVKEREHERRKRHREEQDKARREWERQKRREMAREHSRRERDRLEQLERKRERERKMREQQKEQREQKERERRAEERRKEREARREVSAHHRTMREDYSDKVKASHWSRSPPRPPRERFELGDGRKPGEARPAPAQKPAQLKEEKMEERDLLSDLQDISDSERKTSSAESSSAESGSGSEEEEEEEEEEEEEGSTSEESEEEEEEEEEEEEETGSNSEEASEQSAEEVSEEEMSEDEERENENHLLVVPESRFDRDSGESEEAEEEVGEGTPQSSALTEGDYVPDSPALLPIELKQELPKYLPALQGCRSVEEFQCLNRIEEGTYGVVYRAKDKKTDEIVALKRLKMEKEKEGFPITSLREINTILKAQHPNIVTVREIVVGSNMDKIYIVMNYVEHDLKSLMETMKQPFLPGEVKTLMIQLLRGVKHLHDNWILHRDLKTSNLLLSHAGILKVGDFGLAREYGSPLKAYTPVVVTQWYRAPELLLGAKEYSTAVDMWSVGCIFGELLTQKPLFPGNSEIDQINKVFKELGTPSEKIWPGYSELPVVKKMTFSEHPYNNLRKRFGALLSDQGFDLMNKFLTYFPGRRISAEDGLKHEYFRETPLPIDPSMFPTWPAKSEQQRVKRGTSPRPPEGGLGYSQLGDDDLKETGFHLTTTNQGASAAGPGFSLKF
UniProt Q7Z7K6: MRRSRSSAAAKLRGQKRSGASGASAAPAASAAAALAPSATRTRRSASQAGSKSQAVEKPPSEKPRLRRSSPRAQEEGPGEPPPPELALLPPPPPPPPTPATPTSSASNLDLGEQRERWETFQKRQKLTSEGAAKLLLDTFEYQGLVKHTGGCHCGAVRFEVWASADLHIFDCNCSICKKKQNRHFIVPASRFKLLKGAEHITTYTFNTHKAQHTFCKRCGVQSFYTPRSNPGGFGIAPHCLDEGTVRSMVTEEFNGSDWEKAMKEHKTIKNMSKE
UniProt Q6IPU0: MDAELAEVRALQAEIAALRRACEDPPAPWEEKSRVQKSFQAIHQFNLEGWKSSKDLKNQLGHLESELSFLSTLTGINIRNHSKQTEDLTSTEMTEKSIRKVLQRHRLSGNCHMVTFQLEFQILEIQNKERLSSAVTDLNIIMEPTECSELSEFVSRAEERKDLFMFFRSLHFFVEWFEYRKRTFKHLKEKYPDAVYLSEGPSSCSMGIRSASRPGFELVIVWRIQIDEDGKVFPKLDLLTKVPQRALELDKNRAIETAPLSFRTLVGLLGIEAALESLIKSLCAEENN
UniProt Q9BUX1: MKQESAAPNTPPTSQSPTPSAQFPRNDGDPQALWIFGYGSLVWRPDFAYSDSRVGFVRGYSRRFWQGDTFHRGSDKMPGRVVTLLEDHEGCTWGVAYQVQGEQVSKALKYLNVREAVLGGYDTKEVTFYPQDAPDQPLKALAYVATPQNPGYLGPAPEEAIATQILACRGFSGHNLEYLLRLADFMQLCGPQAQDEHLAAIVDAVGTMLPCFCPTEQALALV
UniProt Q96SZ6: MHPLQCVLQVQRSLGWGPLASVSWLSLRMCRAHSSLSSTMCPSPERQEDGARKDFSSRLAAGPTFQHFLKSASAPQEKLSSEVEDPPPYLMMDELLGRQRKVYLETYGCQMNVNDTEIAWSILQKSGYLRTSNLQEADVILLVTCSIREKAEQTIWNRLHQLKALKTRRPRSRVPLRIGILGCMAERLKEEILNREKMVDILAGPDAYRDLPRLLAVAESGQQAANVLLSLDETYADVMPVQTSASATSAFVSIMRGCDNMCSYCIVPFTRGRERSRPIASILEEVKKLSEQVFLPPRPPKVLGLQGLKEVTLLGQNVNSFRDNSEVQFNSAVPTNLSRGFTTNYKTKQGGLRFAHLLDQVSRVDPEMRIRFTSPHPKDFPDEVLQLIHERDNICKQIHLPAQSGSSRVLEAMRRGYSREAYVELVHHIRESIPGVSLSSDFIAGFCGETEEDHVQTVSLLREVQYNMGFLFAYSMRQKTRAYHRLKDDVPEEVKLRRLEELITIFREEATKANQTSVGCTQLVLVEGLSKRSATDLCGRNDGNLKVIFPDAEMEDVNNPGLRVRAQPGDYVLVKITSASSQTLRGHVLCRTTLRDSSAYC
UniProt Q00535, whole entry, looked up: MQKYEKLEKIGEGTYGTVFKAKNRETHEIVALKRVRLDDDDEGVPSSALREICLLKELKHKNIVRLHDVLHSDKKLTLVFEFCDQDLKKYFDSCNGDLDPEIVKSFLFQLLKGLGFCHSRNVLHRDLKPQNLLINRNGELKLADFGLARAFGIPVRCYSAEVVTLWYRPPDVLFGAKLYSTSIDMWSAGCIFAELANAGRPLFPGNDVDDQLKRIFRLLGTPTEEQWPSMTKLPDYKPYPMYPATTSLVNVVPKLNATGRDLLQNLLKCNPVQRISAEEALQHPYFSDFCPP
UniProt O43822: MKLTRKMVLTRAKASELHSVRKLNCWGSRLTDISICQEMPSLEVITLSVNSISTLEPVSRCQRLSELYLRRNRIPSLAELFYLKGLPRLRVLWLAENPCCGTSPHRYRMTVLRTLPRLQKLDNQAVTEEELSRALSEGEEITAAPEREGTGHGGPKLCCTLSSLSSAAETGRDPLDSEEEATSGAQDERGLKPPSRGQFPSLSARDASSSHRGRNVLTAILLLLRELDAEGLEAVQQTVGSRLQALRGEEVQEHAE
UniProt Q6ZU80: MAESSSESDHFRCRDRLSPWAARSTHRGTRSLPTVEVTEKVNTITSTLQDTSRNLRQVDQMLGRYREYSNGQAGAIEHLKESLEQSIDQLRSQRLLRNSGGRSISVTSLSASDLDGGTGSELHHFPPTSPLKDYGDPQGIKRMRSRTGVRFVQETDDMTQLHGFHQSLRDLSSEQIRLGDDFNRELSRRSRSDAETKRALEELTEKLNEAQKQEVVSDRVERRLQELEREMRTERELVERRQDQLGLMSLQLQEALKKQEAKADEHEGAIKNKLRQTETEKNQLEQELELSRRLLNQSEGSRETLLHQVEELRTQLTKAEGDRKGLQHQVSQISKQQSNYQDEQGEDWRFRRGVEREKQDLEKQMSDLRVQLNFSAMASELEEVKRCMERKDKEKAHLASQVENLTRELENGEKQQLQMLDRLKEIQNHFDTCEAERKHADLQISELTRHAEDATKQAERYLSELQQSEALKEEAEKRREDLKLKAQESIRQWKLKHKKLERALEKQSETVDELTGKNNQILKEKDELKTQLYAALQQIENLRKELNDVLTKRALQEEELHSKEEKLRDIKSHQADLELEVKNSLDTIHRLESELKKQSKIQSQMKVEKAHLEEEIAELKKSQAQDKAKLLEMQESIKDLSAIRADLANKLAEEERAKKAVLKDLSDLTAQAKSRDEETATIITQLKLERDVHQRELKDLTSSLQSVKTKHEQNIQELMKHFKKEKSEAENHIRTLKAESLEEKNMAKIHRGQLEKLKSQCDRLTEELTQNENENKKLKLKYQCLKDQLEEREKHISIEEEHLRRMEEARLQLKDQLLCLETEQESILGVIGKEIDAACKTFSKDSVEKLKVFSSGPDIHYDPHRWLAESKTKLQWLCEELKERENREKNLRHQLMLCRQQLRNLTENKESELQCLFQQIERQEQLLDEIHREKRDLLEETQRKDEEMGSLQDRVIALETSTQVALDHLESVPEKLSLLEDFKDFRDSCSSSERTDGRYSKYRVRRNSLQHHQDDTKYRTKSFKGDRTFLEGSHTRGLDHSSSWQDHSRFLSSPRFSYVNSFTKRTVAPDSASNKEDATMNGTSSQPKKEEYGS
UniProt P21926: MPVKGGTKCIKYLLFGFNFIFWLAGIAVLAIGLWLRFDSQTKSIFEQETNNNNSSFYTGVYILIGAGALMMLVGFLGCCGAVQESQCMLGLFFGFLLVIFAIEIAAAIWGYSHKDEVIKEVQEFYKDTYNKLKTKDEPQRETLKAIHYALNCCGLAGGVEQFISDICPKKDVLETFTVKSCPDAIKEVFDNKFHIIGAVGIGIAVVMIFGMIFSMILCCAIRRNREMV
UniProt P27701: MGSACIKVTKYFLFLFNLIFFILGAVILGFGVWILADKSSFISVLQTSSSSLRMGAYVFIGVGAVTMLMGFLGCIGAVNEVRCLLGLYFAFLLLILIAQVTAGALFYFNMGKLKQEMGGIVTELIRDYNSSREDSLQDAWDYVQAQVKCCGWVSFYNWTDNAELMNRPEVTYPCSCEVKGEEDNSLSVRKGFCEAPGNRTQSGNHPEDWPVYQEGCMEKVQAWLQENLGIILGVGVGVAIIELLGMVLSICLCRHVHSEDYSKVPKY
UniProt P49336: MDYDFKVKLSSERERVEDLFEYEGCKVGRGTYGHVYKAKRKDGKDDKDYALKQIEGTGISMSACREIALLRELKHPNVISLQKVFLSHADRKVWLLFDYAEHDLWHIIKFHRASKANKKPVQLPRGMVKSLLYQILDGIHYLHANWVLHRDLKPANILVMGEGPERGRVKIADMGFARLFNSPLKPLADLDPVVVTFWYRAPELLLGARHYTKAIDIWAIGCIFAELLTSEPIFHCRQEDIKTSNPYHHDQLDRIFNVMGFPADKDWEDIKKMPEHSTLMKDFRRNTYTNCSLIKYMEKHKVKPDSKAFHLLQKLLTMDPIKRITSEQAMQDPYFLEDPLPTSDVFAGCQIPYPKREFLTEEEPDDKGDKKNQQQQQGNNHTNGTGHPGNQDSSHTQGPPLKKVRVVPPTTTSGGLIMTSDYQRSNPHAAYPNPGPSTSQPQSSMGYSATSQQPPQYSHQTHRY

How the values were obtained:
Assay in all cases: log2 fold change, soluble protein after heating vs DMSO (PISA); higher = thermal stabilisation; K562 lysate, 10 uM; active = over 0.2 and 3.5 SD of the protein, either way, in both replicates (recomputed)
vemurafenib = compound: CCCS(=O)(=O)Nc1ccc(F)c(C(=O)c2c[nH]c3ncc(-c4ccc(Cl)cc4)cc23)c1F [vemurafenib]
Summary of the method: (§1)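 K562 pellets were dounce-homogenised in PBS pH 7.4 with 1 mM MgCl2, and the crude extract at 1 mg/mL protein was treated with 10 μM compound for 30 min. Aliquots were heated for 3 min across 48°C-58°C, pooled, and brought to 0.5% NP-40 at 4°C; soluble protein was the supernatant after 21,000xg for 90 min. Soluble protein was quantified by TMTpro 16plex LC-MS/MS with channel sums equalised, and reported as log2 fold change in thermal stability against DMSO controls, with values from duplicates.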

[1] = compound: CCCS(=O)(=O)Nc1ccc(F)c(C(=O)c2c[nH]c3ncc(Cl)cc23)c1F
Summary of the method: as §1

barasertib = compound: CCN(CCCOc1ccc2c(Nc3cc(CC(=O)Nc4cccc(F)c4)[nH]n3)ncnc2c1)CCOP(=O)(O)O [barasertib]
Summary of the method: as §1

[2] = compound: CC[C@@H]1C(=O)N(C)c2cnc(Nc3ccc(C(=O)NC4CCN(C)CC4)cc3OC)nc2N1C1CCCC1
Summary of the method: as §1

volasertib = compound: CC[C@@H]1C(=O)N(C)c2cnc(Nc3ccc(C(=O)N[C@H]4CC[C@H](N5CCN(CC6CC6)CC5)CC4)cc3OC)nc2N1C(C)C [volasertib]
Summary of the method: as §1

[3] = compound: CCn1cc(-c2ccnc3[nH]c(-c4cccc(CN(C)C)c4)cc23)c(-c2ccc(NC(=O)N(C)C)cc2)n1
Summary of the method: as §1

[4] = compound: CN1CCC(CNc2ccc3ncc(-c4cccc(OC(F)(F)F)c4)n3n2)CC1
Summary of the method: as §1

saracatinib = compound: CN1CCN(CCOc2cc(OC3CCOCC3)c3c(Nc4c(Cl)ccc5c4OCO5)ncnc3c2)CC1 [saracatinib]
Summary of the method: as §1

sotrastaurin = compound: CN1CCN(c2nc(C3=C(c4c[nH]c5ccccc45)C(=O)NC3=O)c3ccccc3n2)CC1 [sotrastaurin]
Summary of the method: as §1

alvocidib = compound: CN1CC[C@H](c2c(O)cc(O)c3c(=O)cc(-c4ccccc4Cl)oc23)[C@H](O)C1 [alvocidib]
Summary of the method: as §1

[5] = compound: CNC(=O)C1=CC=CC=C1NC2=NC(=NC=C2Cl)NC3=C(C=C(C=C3)N4CCOCC4)OC
Summary of the method: as §1

defactinib = compound: CNC(=O)c1ccc(Nc2ncc(C(F)(F)F)c(NCc3nccnc3N(C)S(C)(=O)=O)n2)cc1 [defactinib]
Summary of the method: as §1

[6] = compound: CNc1nc(-c2ccc3c(N)n[nH]c3c2)cc(N2C[C@@H](C(=O)NC3CCCCC3)CC[C@H]2C)n1
Summary of the method: as §1

encorafenib = compound: COC(=O)N[C@@H](C)CNc1nccc(-c2cn(C(C)C)nc2-c2cc(Cl)cc(NS(C)(=O)=O)c2F)n1 [encorafenib]
Summary of the method: as §1

[7] = compound: COC(=O)[C@H](CCSC)NC(=O)C1=C(C=C(C=C1)NC[C@H](CS)N)C2=CC=CC=C2
Summary of the method: as §1

alisertib = compound: COc1cc(Nc2ncc3c(n2)-c2ccc(Cl)cc2C(c2c(F)cccc2OC)=NC3)ccc1C(=O)O [alisertib]
Summary of the method: as §1

[8] = compound: COc1cc2nc(-c3cc(F)ccc3O)nc(N[C@@H]3CNC[C@H]3C(C)(C)O)c2cc1OC
Summary of the method: as §1

gefitinib = compound: COc1cc2ncnc(Nc3ccc(F)c(Cl)c3)c2cc1OCCCN1CCOCC1 [gefitinib]
Summary of the method: as §1

[9] = compound: CCn1c(C(=O)N(C2CC2)C2CC2)cc2c3c(ncn3C)c(Nc3cc(C)n(C)n3)nc21
Summary of the method: as §1

Tubastatin A = compound: CN1CCc2c(c3ccccc3n2Cc2ccc(C(=O)NO)cc2)C1 [Tubastatin A]
Summary of the method: as §1

Measured: log2 fold change

CEP41 (UniProt Q9BYV8)
inactive: vemurafenib -0.022 | [1] 0.108 | barasertib 0.03 | [2] 0.018 | volasertib -0.023 | [3] 0.02 | [4] -0.009 | saracatinib -0.032 | sotrastaurin 0.03 | alvocidib 0.042 | [5] 0.083 | defactinib 0.015 | [6] 0.073 | encorafenib 0.001 | [7] -0.139 | alisertib 0.029 | [8] -0.059 | gefitinib 0.011

CENPJ (UniProt Q9HC77)
inactive: vemurafenib 0.118 | [1] 0.329 | barasertib 0.019 | [2] 0.166 | volasertib -0.103 | [9] 0.015 | saracatinib 0.015 | sotrastaurin 0.042 | Tubastatin A -0.011 | [5] 0.057 | defactinib -0.069 | [6] 0.081 | encorafenib 0.029 | [7] 0.02 | [8] -0.091

CEP44 (UniProt Q9C0F1)
inactive: vemurafenib -0.035 | [1] 0.061 | barasertib -0.004 | [2] 0.004 | volasertib -0.021 | [9] 0.009 | [3] 0.043 | [4] -0.013 | saracatinib -0.002 | sotrastaurin -0.018 | alvocidib 0.045 | Tubastatin A -0.057 | [5] 0.019 | defactinib 0.081 | [6] -0.03 | encorafenib 0.007 | [7] -0.059 | alisertib -0.02 | [8] 0.033 | gefitinib 0.03

CEP152 (UniProt O94986)
inactive: vemurafenib 0.031 | barasertib 0.106 | [2] 0.25 | [9] 0.008 | [3] -0.009 | [4] 0.272 | saracatinib 0.051 | sotrastaurin -0.039 | alvocidib -0.077 | Tubastatin A -0.061 | [5] 0.019 | defactinib 0.019 | [6] 0.182 | encorafenib -0.064 | [7] 0.04 | alisertib -0.007 | gefitinib 0.008

CDK11A (UniProt Q9UQ88)
inactive: [1] -0.019 | barasertib 0.029 | volasertib -0.135 | [9] 0.047 | [3] 0.127 | [4] -0.099 | saracatinib -0.069 | sotrastaurin -0.026 | alvocidib 0.077 | Tubastatin A -0.172 | [5] -0.011 | [6] 0.023 | alisertib -0.023 | [8] -0.037 | gefitinib 0

CEP295 isoform 3 (UniProt Q9C0D2)
inactive: [1] -0.058 | barasertib -0.039 | [2] 0.052 | volasertib 0.043 | [9] -0.028 | [3] -0.387 | [4] 0.001 | sotrastaurin 0.005 | alvocidib -0.039 | Tubastatin A -0.099 | [5] -0.029 | encorafenib -0.154 | [7] 0.149 | alisertib 0.018 | [8] -0.016 | gefitinib -0.041

CDC37 (UniProt K7EKQ2)
inactive: vemurafenib 0.079 | [1] 0.079 | volasertib 0.007 | [9] -0.025 | [3] 0.218 | [4] 0.081 | saracatinib -0.006 | sotrastaurin -0.082 | alvocidib -0.084 | Tubastatin A -0.01 | [5] -0.04 | defactinib 0 | [6] 0.058 | alisertib 0.31 | [8] -0.042 | gefitinib -0.074

CENPV (UniProt Q7Z7K6)
inactive: vemurafenib -0.104 | barasertib 0 | [2] -0.033 | [9] 0.19 | [3] 0.264 | [4] -0.004 | sotrastaurin 0.007 | alvocidib -0.15 | Tubastatin A -0.458 | defactinib 0.117 | encorafenib 0.323 | [7] -0.045 | alisertib -0.205 | gefitinib 0.789

Quoted from the listing (2 entries):
CEP44 (UniProt Q9C0F1)
inactive: vemurafenib -0.035 | [1] 0.061 | barasertib -0.004 | [2] 0.004 | volasertib -0.021 | [9] 0.009 | [3] 0.043 | [4] -0.013 | saracatinib -0.002 | sotrastaurin -0.018 | alvocidib 0.045 | Tubastatin A -0.057 | [5] 0.019 | defactinib 0.081 | [6] -0.03 | encorafenib 0.007 | [7] -0.059 | alisertib -0.02 | [8] 0.033 | gefitinib 0.03

CEP152 (UniProt O94986)
inactive: vemurafenib 0.031 | barasertib 0.106 | [2] 0.25 | [9] 0.008 | [3] -0.009 | [4] 0.272 | saracatinib 0.051 | sotrastaurin -0.039 | alvocidib -0.077 | Tubastatin A -0.061 | [5] 0.019 | defactinib 0.019 | [6] 0.182 | encorafenib -0.064 | [7] 0.04 | alisertib -0.007 | gefitinib 0.008

The results go on.

CENPP (UniProt Q6IPU0)
inactive: vemurafenib -0.001 | [1] 0.011 | [2] 0.038 | volasertib 0.096 | [9] 0.063 | [3] 0.033 | [4] 0.025 | saracatinib -0.196 | sotrastaurin -0.019 | alvocidib -0.057 | Tubastatin A -0.036 | [5] -0.049 | defactinib 0.019 | [6] 0.092 | encorafenib 0.062 | [7] 0.075 | alisertib 0.068 | [8] 0.008 | gefitinib 0.078

CEBPB (UniProt P17676)
inactive: vemurafenib 0.063 | barasertib -0.019 | [2] 0.055 | [9] 0.108 | [3] 0.119 | [4] 0.128 | saracatinib 0.025 | sotrastaurin -0.043 | alvocidib -0.064 | Tubastatin A -0.223 | [5] 0.155 | defactinib 0.009 | [6] 0.133 | encorafenib 0.101 | [7] -0.152

CEP83 (UniProt Q9Y592)
inactive: vemurafenib -0.052 | [1] -0.003 | volasertib 0.049 | [9] -0.022 | [3] 0.031 | [4] 0.002 | sotrastaurin -0.076 | alvocidib 0.007 | Tubastatin A 0.076 | [5] 0.012 | defactinib 0.069 | alisertib 0 | [8] 0.074 | gefitinib -0.007

CHAC1 (UniProt Q9BUX1)
inactive: vemurafenib -0.116 | barasertib 0.071 | saracatinib -0.214 | sotrastaurin 0.013 | defactinib 0 | [6] 0.404

CFAP97 (UniProt Q9P2B7)
inactive: vemurafenib 0.14 | [9] 0.005 | [3] 0.043 | [4] -0.125 | saracatinib 0.002 | sotrastaurin 0.015 | alvocidib -0.016 | Tubastatin A -0.148 | [5] 0.025 | defactinib 0.272 | [6] 0.086

CDK5RAP1 (UniProt Q96SZ6)
inactive: vemurafenib -0.03 | barasertib 0.025 | [2] 0.059 | [9] 0.035 | [3] 0.023 | [4] 0.026 | saracatinib 0.026 | sotrastaurin -0.037 | alvocidib 0.019 | Tubastatin A -0.023 | [5] -0.06 | defactinib 0.018 | [6] -0.024 | encorafenib -0.057 | [7] 0.029 | alisertib -0.003 | gefitinib -0.007

CDK5 (UniProt Q00535)
active: alvocidib 1.07 | defactinib 0.654
inactive: vemurafenib -0.021 | [1] 0.022 | [2] -0.08 | volasertib -0.079 | [9] 0.008 | [3] -0.055 | [4] 0.071 | saracatinib -0.008 | sotrastaurin 0.175 | Tubastatin A -0.058 | [5] 0.211 | [6] -0.032 | encorafenib 0.024 | [7] -0.1 | alisertib -0.032 | [8] 0.03 | gefitinib -0.027

CFAP410 (UniProt O43822)
inactive: vemurafenib -0.016 | barasertib 0.037 | [2] -0.015 | [9] -0.063 | sotrastaurin 0 | Tubastatin A -0.117 | [5] 0.239 | defactinib -0.147 | encorafenib -0.017 | [7] 0.101 | alisertib -0.186 | gefitinib 0.297

CEP128 (UniProt Q6ZU80)
inactive: vemurafenib -0.025 | barasertib 0.124 | [2] -0.132 | [9] 0.375 | [4] 0.369 | saracatinib 0.07 | alvocidib -0.294 | Tubastatin A 0.565 | defactinib -0.052 | [6] -0.037 | encorafenib 0.064 | [7] 0.031
active: [3] -1.27

CD9 (UniProt P21926)
inactive: vemurafenib -0.069 | [2] 0.186 | [3] -0.129 | [4] 0.014 | saracatinib -0.002 | alvocidib -0.016 | defactinib 0.041 | [6] 0.026 | encorafenib 0.064 | [7] 0.107

CFL1 (UniProt E9PP50)
inactive: [1] -0.127 | barasertib 1.26 | [2] -0.064 | volasertib -0.102 | encorafenib 0.113 | [7] 0.108 | [8] 0.089

CD82 (UniProt P27701)
inactive: vemurafenib 0.098 | [1] -0.083 | volasertib 0.106 | [9] -0.104 | [3] -0.133 | [4] 0.059 | alvocidib -0.141 | Tubastatin A 0.037 | [5] -0.031 | defactinib -0.097 | alisertib -0.169 | [8] -0.023 | gefitinib -0.084

CDK8 (UniProt P49336)
inactive: vemurafenib 0.065 | [1] 0.138 | barasertib 0.002 | volasertib -0.083 | [9] -0.011 | [3] -0.134 | [4] 0.045 | saracatinib 0.109 | sotrastaurin -0.001 | Tubastatin A -0.059 | [5] -0.065 | defactinib -0.101 | [6] 0.083 | alisertib -0.052 | [8] -0.047 | gefitinib 0.07
active: alvocidib 0.384

CDKL5 (UniProt O76039)
active: alvocidib 1.14
inactive: vemurafenib -0.131 | [1] 0.041 | [2] -0.149 | volasertib -0.035 | [3] -0.091 | [4] 0.088 | saracatinib -0.122 | sotrastaurin 0.048 | defactinib 0.55 | [6] -0.052 | encorafenib -0.038 | [7] -0.116 | [8] 0.058
